This note sets out measurements from paper PMC12667481.

Sequences of proteins named here, by UniProt entry; tags and fusion partners are left off.
UniProt P13010: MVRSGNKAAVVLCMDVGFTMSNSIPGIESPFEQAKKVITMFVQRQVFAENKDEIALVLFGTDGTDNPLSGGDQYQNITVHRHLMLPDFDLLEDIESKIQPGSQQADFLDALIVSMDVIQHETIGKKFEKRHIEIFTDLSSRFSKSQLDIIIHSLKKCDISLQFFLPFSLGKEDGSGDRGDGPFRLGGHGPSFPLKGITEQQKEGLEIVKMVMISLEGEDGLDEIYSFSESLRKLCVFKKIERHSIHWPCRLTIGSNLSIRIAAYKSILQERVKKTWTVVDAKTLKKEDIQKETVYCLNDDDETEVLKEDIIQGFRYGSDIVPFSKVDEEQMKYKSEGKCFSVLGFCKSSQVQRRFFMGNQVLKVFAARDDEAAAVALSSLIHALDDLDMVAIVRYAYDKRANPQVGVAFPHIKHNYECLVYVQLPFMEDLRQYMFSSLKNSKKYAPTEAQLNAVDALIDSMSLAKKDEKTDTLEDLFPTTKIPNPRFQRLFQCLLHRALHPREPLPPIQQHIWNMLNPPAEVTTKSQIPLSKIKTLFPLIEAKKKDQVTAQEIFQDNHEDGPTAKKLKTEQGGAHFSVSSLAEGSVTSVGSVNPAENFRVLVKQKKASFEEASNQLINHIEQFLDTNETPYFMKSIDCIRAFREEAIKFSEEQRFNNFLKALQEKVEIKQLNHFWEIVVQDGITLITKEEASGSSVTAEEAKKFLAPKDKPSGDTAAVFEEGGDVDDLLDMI
UniProt Q93009: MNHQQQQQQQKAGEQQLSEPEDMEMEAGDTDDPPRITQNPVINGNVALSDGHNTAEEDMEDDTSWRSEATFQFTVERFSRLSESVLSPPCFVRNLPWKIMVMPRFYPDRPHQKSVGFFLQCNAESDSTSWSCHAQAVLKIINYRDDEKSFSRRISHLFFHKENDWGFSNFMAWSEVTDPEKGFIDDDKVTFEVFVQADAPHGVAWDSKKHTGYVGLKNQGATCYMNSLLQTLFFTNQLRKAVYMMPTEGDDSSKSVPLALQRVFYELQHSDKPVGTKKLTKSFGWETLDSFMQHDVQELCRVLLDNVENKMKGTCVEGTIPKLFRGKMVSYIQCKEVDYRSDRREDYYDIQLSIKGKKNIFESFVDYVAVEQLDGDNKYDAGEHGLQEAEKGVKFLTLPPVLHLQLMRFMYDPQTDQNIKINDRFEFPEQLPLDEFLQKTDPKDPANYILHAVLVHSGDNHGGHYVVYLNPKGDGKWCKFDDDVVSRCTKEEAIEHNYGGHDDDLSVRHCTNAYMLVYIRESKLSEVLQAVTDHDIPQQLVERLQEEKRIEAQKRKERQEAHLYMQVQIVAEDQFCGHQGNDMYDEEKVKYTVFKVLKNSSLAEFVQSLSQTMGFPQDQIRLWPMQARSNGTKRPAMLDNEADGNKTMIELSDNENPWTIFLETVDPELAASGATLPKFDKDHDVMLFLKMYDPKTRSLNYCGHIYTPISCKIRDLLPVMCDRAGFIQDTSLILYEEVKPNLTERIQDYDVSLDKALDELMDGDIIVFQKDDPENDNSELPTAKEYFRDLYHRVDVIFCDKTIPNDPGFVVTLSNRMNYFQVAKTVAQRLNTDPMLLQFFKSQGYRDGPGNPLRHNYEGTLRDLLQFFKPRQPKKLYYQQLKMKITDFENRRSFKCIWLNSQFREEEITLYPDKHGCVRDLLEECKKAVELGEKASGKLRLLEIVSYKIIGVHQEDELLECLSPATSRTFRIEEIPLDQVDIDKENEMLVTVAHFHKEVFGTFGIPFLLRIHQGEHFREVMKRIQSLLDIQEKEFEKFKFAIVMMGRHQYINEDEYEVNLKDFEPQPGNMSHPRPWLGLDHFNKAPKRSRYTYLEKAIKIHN

In assay [1] the target is Flag-Ku80 (UniProt P13010). The assay can be described thus: co-IP; HEK293T cells co-transfected with tagged constructs (GFP-APOL2 or its truncations, Flag-Ku80, Myc-USP7); lysed in IP buffer; the methods name anti-GFP magnetic beads; Western blot; one panel after 50 µM formononetin (FN) for 48 h (APOL2-Ku80 interaction attenuated). Background: A western blot detects proteins with antibodies after separation by electrophoresis.

Assay [2] has as its target Ku80 (endogenous) (human (endogenous in MKN1 and other GC cells)) (UniProt P13010). The assay can be described thus: co-IP; endogenous proteins; GC cells (APOL2 with Ku80); cells not named in the text for USP7; Western blot.

These are yes or no findings as the source states them, for the method shown. In cells and extracts the contact can be indirect. Some results given as binding are weak or reduced against the parent protein; the word gives no strength.

With “Myc-USP7 (from UniProt Q93009 1-1102) (enzyme)”, the binding entry in assay [1] is “binds”.

Turning to “USP7 (endogenous) (from UniProt Q93009 1-1102) (enzyme)”, the binding result in assay [2] is on record as “binds”.
